From PMC11564117 come the findings set out here.

No constants are given. Whether binding was seen depends on the method and setting. Sequences can lack the tags named with a protein.

The target of this assay is OPTN-GST (human), Q96CV9. The experiment in a line: microscopy-based bead assay; Fig. 6e, Extended Data Fig. 10: GST, OPTN-GST or GST–NAP1 on glutathione beads; EGFP–TBK1 WT, KD or E696K 250 nM; 25 mM Tris-HCl pH 7.4, 150 mM NaCl, 1 mM DTT; 30 min; Extended Data Fig. 10 with and without ATP/MgCl2 (interaction weakened with ATP/MgCl2); confocal imaging; both purified. The settings on record: remark: other sources report otherwise.

B1: EGFP–TBK1 E696K mutant, Q9UHD2 1-729 (enzyme)
chain: MQSTSNHLWLLSDILGQGATANVFRGRHKKTGDLFAIKVFNNISFLRPVDVQMREFEVLKKLNHKNIVKLFAIEEETTTRHKVLIMEFCPCGSLYTVLEEPSNAYGLPESEFLIVLRDVVGGMNHLRENGIVHRDIKPGNIMRVIGEDGQSVYKLTDFGAARELEDDEQFVSLYGTEEYLHPDMYERAVLRKDHQKKYGATVDLWSIGVTFYHAATGSLPFRPFEGPRRNKEVMYKIITGKPSGAISGVQKAENGPIDWSGDMPVSCSLSRGLQVLLTPVLANILEADQEKCWGFDQFFAETSDILHRMVIHVFSLQQMTAHKIYIHSYNTATIFHELVYKQTKIISSNQELIYEGRRLVLEPGRLAQHFPKTTEENPIFVVSREPLNTIGLIYEKISLPKVHPRYDLDGDASMAKAITGVVCYACRIASTLLLYQELMRKGIRWLIELIKDDYNETVHKKTEVVITLDFCIRNIEKTVKVYEKLMKINLEAAELGEISDIHTKLLRLSSSQGTIETSLQDIDSRLSPGGSLADAWAHQEGTHPKDRNVEKLQVLLNCMTEIYYQFKKDKAERRLAYNEEQIHKFDKQKLYYHATKAMTHFTDECVKKYEAFLNKSEEWIRKMLHLRKQLLSLTNQCFDIEEEVSKYQEYTNELQETLPQKMFTASSGIKHTMTPIYPSSNTLVEMTLGMKKLKEKMEGVVKELAENNHILERFGSLTMDGGLRNVDCL
With B1, the binding result is “no binding (tested: 250 nM)”.
